Some of the results follow. These are raw signals, not scaled to a control.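 First-pass screen: polymyxin B was added at a level that permeabilizes the Salmonella outer membrane while sparing the inner membrane. DMSO wells, with and without polymyxin B, defined maximum growth. Because plates differed from one another, each plate's data were ranked separately and the compounds with the lowest OD600 were carried forward as hits.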
System: Salmonella enterica serovar Typhimurium SL1344
Test: bacterial growth OD600 after 18 h with compound and polymyxin B; higher = more bacterial growth (less inhibition)
Conditions: 50 µM, Mueller-Hinton broth

| Compound | bacterial growth OD600 (polymyxin B 1 µg/mL) | bacterial growth OD600 (polymyxin B 0.75 µg/mL) |
| --- | --- | --- |
| Cc1oc(-c2cc3c(cc2Cl)OCO3)nc1CN1CCCC1c1ccc(F)cc1 (configuration not stated) | 0.875 |  |
| O=C(Nc1ccnn1C1CCN(Cc2ccncc2)CC1)C1CCCC1 |  | 0.805 |
| CSCCC(=O)NC(C)c1cnc(N(C)C2CCCCC2)nc1C (configuration not stated) | 0.725 |  |
| CN(C(=O)c1cccs1)C(Cc1ccccc1)C1CCN(C(=O)C2=CCCC2)CC1 (configuration not stated) |  | 0.834 |
| COc1cccc(OC)c1CN1CCOc2ccc(C(C)(O)COc3ccccc3)cc2C1 (configuration not stated) |  | 0.779 |
| CCCC1(C2CCN(C(=O)c3ccc(F)cc3F)CC2)NC(=O)N(CCc2ccccn2)C1=O (configuration not stated) |  | 0.922 |
| COc1cccc(C(=O)N2CCCC(N3CCN(c4ccccc4C)CC3)C2)c1 (configuration not stated) | 0.786 |  |
| Cc1cccnc1CC(C)Nc1nc2nonc2nc1NC1CC1 (configuration not stated) |  | 0.746 |
| O=C1CCCN1CCC(=O)N1CCCC(CCc2ccccc2C(F)(F)F)C1 (configuration not stated) |  | 0.632 |
| O=C(c1cnc2ccccn2c1=O)N1CCc2c([nH]c3ccccc23)C1c1ccccn1 (configuration not stated) | 0.86 |  |
| O=C(NCCC1=CCCCC1)C1CC12CCN(C(=O)CCc1ccc3c(c1)OCO3)CC2 (configuration not stated) |  | 0.005 |
| CCc1cnc(N2CCC(C3CCN(Cc4cccnc4)CC3)C2)nc1 (configuration not stated) |  | 0.725 |
| CCC1CN(Cc2cc(OC)c3c(c2)OCO3)Cc2cc(OC)ccc2O1 (configuration not stated) |  | 0.009 |
| Fc1ccccc1CN(CC1CCN(C2CCCC2)CC1)CC1CCCO1 (configuration not stated) | 0.849 |  |
| CN(C(=O)CCc1cccnc1)C1CCCN(Cc2ccccc2F)C1 (configuration not stated) | 1.05 |  |
| O=C(c1cn(C/C=C/c2ccccc2)nn1)N1CCN(c2cccc(Cl)c2)CC1 | 0.825 |  |

Reformatted: 2 of the compounds above
Compound	bacterial growth OD600 (polymyxin B 1 µg/mL)	bacterial growth OD600 (polymyxin B 0.75 µg/mL)
CN(C(=O)c1cccs1)C(Cc1ccccc1)C1CCN(C(=O)C2=CCCC2)CC1 (configuration not stated)		0.834
COc1cccc(OC)c1CN1CCOc2ccc(C(C)(O)COc3ccccc3)cc2C1 (configuration not stated)		0.779

Next part.

| Compound | bacterial growth OD600 (polymyxin B 1 µg/mL) | bacterial growth OD600 (polymyxin B 0.75 µg/mL) |
| --- | --- | --- |
| O=C(Nc1ccc(Oc2ccccc2F)cc1)C1CCN(Cc2cccnc2)CC1 |  | 0.011 |
| COc1c(C)cc(C(=O)C2CCCN(Cc3cccc(C(C)=O)c3)C2)cc1C (configuration not stated) | 0.897 |  |
| CN(Cc1cccc(-n2cccn2)c1)C(=O)Cn1nnnc1CN1CCCC1 | 0.806 |  |
| O=C(c1ccc(N2CCC(O)CC2)nc1)N1CCC(CCn2cccn2)CC1 |  | 0.8 |
| c1cncc(C2CCCCN2c2nc3nonc3nc2N2CCOCC2)c1 (configuration not stated) |  | 0.773 |
| COc1ccc(/C=C/CN2CCOc3ccc(C(O)Cc4ccccc4)cc3C2)cc1 (configuration not stated) |  | 0.024 |
| COc1ccc(OC2CCN(C(=O)C3CC3)CC2)c(C(=O)NCc2cnc(C)cn2)c1 | 0.921 |  |
| CN(CC1CCOCC1)c1nncc(-c2ccc(F)cc2)n1 |  | 0.76 |
| Cc1ccc(-c2nnc(CCC(=O)NCCc3cccc4ccccc34)o2)s1 |  | 0.001 |
| Cc1cc(C(=O)NCc2cccnc2N(C)Cc2ccccc2)c(=O)[nH]c1C |  | 0.589 |
| COC(=O)CNC(=O)c1csc2nc(-c3ccccc3)cn12 | 0.882 |  |
| O=C(NCCN1Cc2ccccc2OC(c2ccsc2)C1)C1CC(=O)N(Cc2ccccn2)C1 (configuration not stated) |  | 0.798 |
| CN1CCN(c2ncccc2CNC(=O)C[C@@H]2C[C@@H]3C=C[C@H]2C3)CC1 |  | 0.825 |
| C=C(C)CN(C)c1ccc(C(=O)N2CCC(CN3CCCC3=O)CC2)cn1 |  | 0.779 |
| COc1ccc2c(c1)OC(C)CN(CC(=O)N1CCC(c3nc4ccccc4o3)CC1)C2 (configuration not stated) |  | 0.939 |
| COc1ccccc1C1(CC(=O)N2CCCOc3c(cccc3OC)C2)CC(=O)N(C)C1=O (configuration not stated) |  | 0.951 |
